This assay deals with T1, interferon-related developmental regulator 1 (IFRD1), ectopically expressed in HepG2 cells (UniProt O00458).
T1 sequence: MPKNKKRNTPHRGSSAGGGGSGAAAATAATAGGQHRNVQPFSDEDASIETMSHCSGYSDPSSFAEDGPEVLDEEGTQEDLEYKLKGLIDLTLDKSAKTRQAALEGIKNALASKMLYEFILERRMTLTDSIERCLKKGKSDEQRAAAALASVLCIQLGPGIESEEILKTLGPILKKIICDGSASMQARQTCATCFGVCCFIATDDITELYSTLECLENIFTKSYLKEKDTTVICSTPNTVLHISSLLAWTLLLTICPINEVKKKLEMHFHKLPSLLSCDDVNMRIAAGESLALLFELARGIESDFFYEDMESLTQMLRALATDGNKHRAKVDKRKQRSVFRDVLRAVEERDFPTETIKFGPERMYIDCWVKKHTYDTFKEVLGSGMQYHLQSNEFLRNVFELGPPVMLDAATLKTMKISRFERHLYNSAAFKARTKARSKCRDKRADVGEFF
Nature of the assay: co-IP; proteins ectopically expressed in HepG2 cells; lysis in 50 mM Tris-HCl pH 7.4, 150 mM NaCl, 1 mM EDTA, 5% glycerol, 0.4% Triton X-100, 0.4% NP-40; anti-FLAG M2 beads or antibodies on protein A + G agarose, 4 °C, 4 h; western blot.

Chains of the proteins cited; added tags and fusions are not shown.
UniProt Q6ZNE5: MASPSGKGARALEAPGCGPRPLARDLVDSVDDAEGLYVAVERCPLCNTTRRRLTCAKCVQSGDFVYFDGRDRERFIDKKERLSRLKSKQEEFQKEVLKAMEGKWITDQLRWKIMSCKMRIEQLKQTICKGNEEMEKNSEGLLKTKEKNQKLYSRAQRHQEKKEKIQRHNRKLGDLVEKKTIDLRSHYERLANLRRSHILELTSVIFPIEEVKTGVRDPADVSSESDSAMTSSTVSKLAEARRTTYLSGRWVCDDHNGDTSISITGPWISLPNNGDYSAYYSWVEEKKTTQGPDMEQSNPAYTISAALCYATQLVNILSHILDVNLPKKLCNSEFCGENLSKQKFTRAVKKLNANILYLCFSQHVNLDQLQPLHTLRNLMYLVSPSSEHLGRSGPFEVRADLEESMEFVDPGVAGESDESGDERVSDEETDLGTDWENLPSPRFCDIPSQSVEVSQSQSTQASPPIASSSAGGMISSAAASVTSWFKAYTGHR
UniProt P19474: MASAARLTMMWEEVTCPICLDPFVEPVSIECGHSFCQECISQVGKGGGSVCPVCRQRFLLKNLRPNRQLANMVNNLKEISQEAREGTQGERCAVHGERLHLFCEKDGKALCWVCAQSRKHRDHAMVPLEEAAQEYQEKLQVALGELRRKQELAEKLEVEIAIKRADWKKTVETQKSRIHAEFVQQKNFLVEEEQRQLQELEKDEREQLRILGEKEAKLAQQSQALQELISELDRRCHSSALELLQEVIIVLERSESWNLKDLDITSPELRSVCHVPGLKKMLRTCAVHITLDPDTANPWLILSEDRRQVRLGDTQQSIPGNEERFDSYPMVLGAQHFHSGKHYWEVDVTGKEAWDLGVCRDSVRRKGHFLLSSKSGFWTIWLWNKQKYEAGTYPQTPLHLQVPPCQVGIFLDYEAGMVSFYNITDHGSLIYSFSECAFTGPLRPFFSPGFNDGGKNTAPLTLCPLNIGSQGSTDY

Results are given in words; binding and its absence hold for the method and conditions named. In cells and extracts the contact can be indirect. Some entries that bind do so weakly or less than the wild type.

Take “ATG14, ectopically expressed in HepG2 cells (from UniProt Q6ZNE5 1-492)”: the binding entry is “binds”.

As to “TRIM21, ectopically expressed in HepG2 cells (from UniProt P19474 1-475)”, the binding result is “binds”.

Values taken from publication PMC11130292.
